According to PubChem BioAssay AID2685 (National Center for Advancing Translational Sciences (NCATS), 2010):
This is one part of the list. Further columns of the screen follow, without active or inactive calls. Most of these compounds were active or inconclusive in the main read-out, so they are no random draw. The note in brackets gives the kind of curve behind each potency; many fits are weak.

Assay: qHTS Assay for Lipid Storage Modulators in Drosophila S3 Cells;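 as to cell number change: cells counted by Cell Tracker Red CMTPX staining in the red channel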
Conditions: BODIPY lipid droplet fluorescence, 18-24 h; for cell number change: measured here: cell count max response, cells fed with added oleic acid
Summary of the method: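 Drosophila S3 cells loaded with oleic acid (400 uM, as added) and compounds at several concentrations; lipid droplets imaged by 488-nm laser-scanning cytometry, 500–530 nm intensity and object ratio to cell channel. Percent activity normalized to 20 uM Triacsin C.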

[1] = measured here: lipid fluorescence (Fed channel) AC50, cells fed with added oleic acid
[2] = measured here: cell number channel AC50, cells fed with added oleic acid

SMILES	cell number change [%]	AC50 [1]	AC50 [2]
O=C(CNC(=O)C(c1ccccc1)c1ccccc1)OCc1ccccc1	-25.9	1.84 µM [falling, full curve, poor fit]	–
CCC1CCCCN1C(=O)CSc1nnc(-c2ccc(Cl)s2)o1 (centres undefined)	-24.2	–	–
O=C(NCc1ccc2c(c1)OCO2)c1c(F)c(F)c(F)c(F)c1F	-5.75	5.8 µM [falling, single point]	–
O=C(C1CCN(S(=O)(=O)c2cccnc2)CC1)N1CCN(c2ccc(Cl)cc2)CC1	-35.8	6.51 µM [falling, single point]	0.13 µM [falling, full curve, poor fit]
Cc1ccc2nc(SCC(=O)c3ccc(Cl)cc3)nc(=O)n2c1	-11.5	–	–
Cc1ccc(CNC(=O)CCSCCC(=O)NCc2ccc(C)cc2)cc1	-46.2	–	18.4 µM [falling, single point]
CCc1sc(N(C(=O)Cc2ccccc2)c2ccc(F)cc2)nc1-c1ccccc1	13.3	6.51 µM [rising, single point]	–
CCN(CC(=O)NC1CCS(=O)(=O)C1)C(=O)c1cc(OC)c(OC)c(OC)c1 (centres undefined)	-33.1	0.116 µM [falling, full curve]	0.82 µM [falling, full curve, poor fit]
CCOc1ccccc1NC(=O)COc1ccc(S(=O)(=O)N2CCCC2)cc1	53.9	5.62 µM [rising, single point]	–
CCOC(=O)c1c(C)[nH]c(C(=O)COC(=O)CNC(=O)C2CCCCC2)c1C	21.5	16.4 µM [rising, partial curve]	–
COC(=O)CP(=O)(c1ccccc1)c1ccccc1	-64.9	1.03 µM [falling, partial curve]	29.1 µM [falling, single point]
Cc1nn(Cc2ccccc2Cl)c(C)c1C(=O)N1CCN(c2ccccc2)CC1	-3.95	3.26 µM [rising, partial curve]	–
CC(/C=N/NC(=O)c1nnn(-c2nonc2N)c1C(C)C)=C\c1ccco1	-15.7	–	–
CCC(C)(C)NC(=O)CN(Cc1ccco1)C(=O)CCC(=O)Nc1nccs1	-6.67	–	0.82 µM [rising, single point]
Cc1ccc(-n2c(SCC(N)=O)nc3c([nH]c4ccccc43)c2=O)cc1	–	–	2.31 µM [rising, partial curve]
Cc1ccc(Nc2nc(N3CCOCC3)c3ccccc3n2)cc1	-52	0.58 µM [rising, single point]	29.1 µM [falling, single point]
O=C(CNCc1ccco1)Nc1cccc(S(=O)(=O)N2CCCCC2)c1	22.9	1.3 µM [rising, full curve, poor fit]	–
CCC(C)NCCOc1cccc(Br)c1 (centres undefined)	–	–	0.103 µM [falling, full curve, poor fit]
O=C(N1CCOCC1)C12CCC3CC(CC(C3)C1)C2	-25.2	25.9 µM [falling, partial curve, poor fit]	–
Cc1cccc2cc3c(nc12)-c1ccccc1C3=O	-33.5	25.9 µM [falling, partial curve]	29.1 µM [falling, single point]

Single entries from above:
cell number change [%], CCC1CCCCN1C(=O)CSc1nnc(-c2ccc(Cl)s2)o1 (centres undefined) is entered as -24.2
AC50 [1], O=C(NCc1ccc2c(c1)OCO2)c1c(F)c(F)c(F)c(F)c1F is entered as 5.8 µM [falling, single point]
cell number change [%], Cc1ccc2nc(SCC(=O)c3ccc(Cl)cc3)nc(=O)n2c1 is entered as -11.5

Following part:

SMILES	cell number change [%]	AC50 [1]	AC50 [2]
CC(C)N(CC(N)=O)c1ccc(S(=O)(=O)N2CCCC2)cn1	0.995	–	–
Cc1ccc(S(=O)(=O)NCC(=O)OCC(=O)Nc2ccc3c(c2)OCCO3)cc1	9.78	3.26 µM [falling, single point]	5.17 µM [falling, single point]
Cc1cccc(-n2ncc3c2CCCC3NC(=O)CCc2ccncc2)c1C (centres undefined)	-43.6	29.1 µM [falling, single point]	20.6 µM [falling, single point]
Cc1oc(=O)c(NC(=O)c2ccc(Cl)cc2)cc1C(=O)c1ccccc1	-58.6	18.4 µM [falling, partial curve]	23.1 µM [falling, single point]
CN1CCCN(Cc2ccccc2C(F)(F)F)CC1	22	9.2 µM [falling, partial curve]	–
COC(=O)C1=C(C)Nc2ncnn2C1c1ccc(C)o1 (centres undefined)	9.2	–	–
O=S(=O)(c1ccc(NC(=S)N/N=C/c2ccc(N3CCOCC3)cc2)cc1)N1CCOCC1	-60.5	0.00411 µM [falling, full curve, poor fit]	32.6 µM [falling, partial curve]
CCCc1nnc(NC(=O)CNc2ccc(F)cc2)s1	6.94	4.61 µM [rising, full curve]	–
C=CCNC(=O)CN1N=C(c2ccc(C)cc2)CCC1=O	–	6.51 µM [rising, single point]	–
Cc1ccn2cc(C(=O)Nc3cccc(C(=O)NC4CC4)c3)nc2c1	45.5	–	0.231 µM [rising, full curve]
CC(=O)Nc1ccc(Oc2cc(NC(C)=O)cc([N+](=O)[O-])c2)cc1	18.4	23.1 µM [rising, single point]	–
Cc1ccc(Nc2nc(N)nc(-c3oc4ccccc4c3C)n2)cc1	-40.6	16.4 µM [falling, single point]	3.26 µM [falling, full curve]
Cc1ccc(N2C(=O)Nc3ccc(Br)cc3C2(O)C(=O)NCCCN(C)C)cc1C (centres undefined)	–	29.1 µM [falling, single point]	–
C/C(CC(=O)Nc1cccc(Br)c1)=N\NC(=O)c1ccc(O)cc1O	-16.9	7.31 µM [rising, partial curve]	–
O=S1(=O)CCC(NC(=S)NC2CCS(=O)(=O)C2)C1 (centres undefined)	6.72	13 µM [rising, partial curve]	–
O=[N+]([O-])c1ccc(/C=[N+](\[O-])[C@@H]2CCCC[C@@H]2/[N+]([O-])=C/c2ccc([N+](=O)[O-])o2)o1	-22.3	7.31 µM [falling, partial curve, poor fit]	–
O=C(NC(=S)NNC(=O)[C@H]1C[C@@H]1c1ccccc1)c1ccc(F)cc1	-19.1	29.1 µM [falling, single point]	–
O=C(CN1CCN(C(=O)c2cccs2)CC1)NC1CCCCC1	0.0646	0.731 µM [rising, single point]	–
Cc1cccn2cc(CCNC(=O)c3ccc(Br)o3)nc12	–	6.51 µM [rising, single point]	–
O=C(c1cc(-n2cnnc2)ccc1Cl)N1CCN(c2nc(-c3ccccc3)cs2)CC1	-47.8	25.9 µM [falling, single point]	25.9 µM [falling, single point]

SMILES	cell number change [%]	AC50 [1]	AC50 [2]
CC(C)CNC(=S)NNC(=O)CC(C)O (centres undefined)	16.5	–	–
CC(=O)Nc1cc(C(=O)N2CCc3ccccc3C2)ccc1Sc1ccc(C)cc1	20.3	2.31 µM [rising, partial curve, poor fit]	–
O=C(CN(C(=O)c1csnn1)c1ccc(F)cc1)NCCc1ccccc1	-15.4	–	–
O=C1C(C=NCCCN2CCOCC2)=C(O)c2ccccc21	3.65	–	–
COCCC(=O)N1CCC(C(=O)Nc2ccc(Oc3ccccc3)nc2)CC1	19.1	–	0.058 µM [rising, full curve, poor fit]
CCc1c(C)nc(N)n2c(SCC(=O)N3CCCC(C)C3)nnc12 (centres undefined)	3.05	0.092 µM [falling, full curve, poor fit]	–
Cc1cc(NC(=O)c2ccc(S(=O)(=O)N3CCOCC3)cc2)no1	–	0.13 µM [falling, full curve]	0.164 µM [falling, partial curve]
COc1ccc(CCNC(=O)C2CC(=O)N(C3CCCCCCC3)C2)cc1OC (centres undefined)	15.6	1.46 µM [rising, full curve, poor fit]	–
CN(C)C(=O)CSc1n[nH]c(=O)n1CCc1ccccc1	-4.5	–	–
COc1ccc(OCc2cc(C(=O)N3C[C@H]4CC[C@H]3C4)no2)c(Cl)c1	-27.6	23.1 µM [falling, single point]	–
CC1(C)CC[C@]2(C(=O)O)CC[C@]3(C)C(=CC[C@@H]4[C@@]5(C)CC[C@H](O)C(C)(C)[C@@H]5CC[C@]43C)[C@@H]2C1	0.982	4.11 µM [falling, single point]	–
CN1CCN(C(=O)c2ccc(C(F)(F)F)cc2)CC1	-42.8	–	35.5 µM [falling, single point]
CCc1cc2cc(C)cc(C)c2nc1SCC(=O)N1CCCC1	29.7	2.06 µM [rising, partial curve, poor fit]	–
COc1ccc(CN(C)C(=O)c2ccc3c(=O)n4c(nc3c2)CCC4)cc1	-16.2	6.51 µM [rising, single point]	–
CN(C)NC(=S)Nc1ccc(S(=O)(=O)N2CCCCC2)cc1	–	6.51 µM [falling, single point]	4.11 µM [falling, single point]
COc1ccc(N2CCN(C(=O)COC(=O)/C=C/c3ccc(C(F)(F)F)cc3)CC2)cc1	-85.5	–	–
C/C(CC(=O)Nc1cccc2c1CCCC2)=N\NC(=O)COc1ccccc1	-13.1	–	0.092 µM [rising, full curve, poor fit]
CCOc1ccc(S(=O)(=O)Nc2ccc(F)cc2)c(C)c1C	-132	–	3.66 µM [rising, partial curve]
Cc1cccc(NC(=S)NC(=O)c2cc(-c3ccccc3)nc3ccccc23)c1	19.2	1.84 µM [rising, partial curve]	–
